Laboratory results taken from article PMC8864472.
Results are given in words; binding and its absence hold for the method and conditions named. In cells and extracts the contact can be indirect. Some entries that bind do so weakly or less than the wild type.

Sequences of proteins named here, by UniProt entry; tags and fusion partners are left off.
UniProt O14939: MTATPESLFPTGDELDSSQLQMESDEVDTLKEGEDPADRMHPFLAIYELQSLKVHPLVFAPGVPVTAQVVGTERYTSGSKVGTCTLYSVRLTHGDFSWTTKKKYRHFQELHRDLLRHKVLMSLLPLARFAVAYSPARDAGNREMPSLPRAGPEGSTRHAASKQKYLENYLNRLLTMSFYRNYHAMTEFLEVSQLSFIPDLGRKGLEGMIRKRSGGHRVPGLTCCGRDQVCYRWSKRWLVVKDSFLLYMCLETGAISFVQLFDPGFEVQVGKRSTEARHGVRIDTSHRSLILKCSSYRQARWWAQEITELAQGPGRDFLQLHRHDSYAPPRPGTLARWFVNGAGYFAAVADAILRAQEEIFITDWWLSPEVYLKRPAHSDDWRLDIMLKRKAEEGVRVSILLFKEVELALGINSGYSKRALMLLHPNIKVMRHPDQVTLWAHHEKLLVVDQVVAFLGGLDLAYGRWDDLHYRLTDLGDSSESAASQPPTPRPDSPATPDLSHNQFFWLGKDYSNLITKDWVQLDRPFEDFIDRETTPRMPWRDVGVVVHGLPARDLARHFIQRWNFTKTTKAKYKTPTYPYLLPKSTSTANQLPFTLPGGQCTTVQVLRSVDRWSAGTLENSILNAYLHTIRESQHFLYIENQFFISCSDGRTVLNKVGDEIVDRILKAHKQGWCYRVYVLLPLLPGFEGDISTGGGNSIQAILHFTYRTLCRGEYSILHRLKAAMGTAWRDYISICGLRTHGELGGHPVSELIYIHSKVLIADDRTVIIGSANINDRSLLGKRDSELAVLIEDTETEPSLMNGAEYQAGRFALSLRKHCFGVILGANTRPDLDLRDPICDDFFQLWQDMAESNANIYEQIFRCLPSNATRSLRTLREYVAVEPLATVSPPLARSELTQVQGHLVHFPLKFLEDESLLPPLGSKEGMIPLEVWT

T1: PLD5 (human) (UniProt Q8N7P1)
T1 sequence: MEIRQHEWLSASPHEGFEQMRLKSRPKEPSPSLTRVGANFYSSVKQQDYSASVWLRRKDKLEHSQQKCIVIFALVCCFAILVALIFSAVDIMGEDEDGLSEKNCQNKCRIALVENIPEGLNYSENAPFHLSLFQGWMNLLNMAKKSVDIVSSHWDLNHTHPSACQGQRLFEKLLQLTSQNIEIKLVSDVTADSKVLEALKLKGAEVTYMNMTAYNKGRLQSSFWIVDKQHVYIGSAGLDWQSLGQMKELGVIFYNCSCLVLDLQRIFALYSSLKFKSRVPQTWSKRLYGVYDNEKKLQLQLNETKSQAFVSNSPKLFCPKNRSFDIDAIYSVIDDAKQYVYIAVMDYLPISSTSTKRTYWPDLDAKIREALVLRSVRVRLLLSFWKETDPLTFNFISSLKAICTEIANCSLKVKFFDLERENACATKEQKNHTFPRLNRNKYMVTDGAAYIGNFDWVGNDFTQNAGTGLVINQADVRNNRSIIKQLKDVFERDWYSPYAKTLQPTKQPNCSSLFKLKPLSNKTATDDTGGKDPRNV

T2: phospholipase D1 (human) (UniProt Q13393)
T2 sequence: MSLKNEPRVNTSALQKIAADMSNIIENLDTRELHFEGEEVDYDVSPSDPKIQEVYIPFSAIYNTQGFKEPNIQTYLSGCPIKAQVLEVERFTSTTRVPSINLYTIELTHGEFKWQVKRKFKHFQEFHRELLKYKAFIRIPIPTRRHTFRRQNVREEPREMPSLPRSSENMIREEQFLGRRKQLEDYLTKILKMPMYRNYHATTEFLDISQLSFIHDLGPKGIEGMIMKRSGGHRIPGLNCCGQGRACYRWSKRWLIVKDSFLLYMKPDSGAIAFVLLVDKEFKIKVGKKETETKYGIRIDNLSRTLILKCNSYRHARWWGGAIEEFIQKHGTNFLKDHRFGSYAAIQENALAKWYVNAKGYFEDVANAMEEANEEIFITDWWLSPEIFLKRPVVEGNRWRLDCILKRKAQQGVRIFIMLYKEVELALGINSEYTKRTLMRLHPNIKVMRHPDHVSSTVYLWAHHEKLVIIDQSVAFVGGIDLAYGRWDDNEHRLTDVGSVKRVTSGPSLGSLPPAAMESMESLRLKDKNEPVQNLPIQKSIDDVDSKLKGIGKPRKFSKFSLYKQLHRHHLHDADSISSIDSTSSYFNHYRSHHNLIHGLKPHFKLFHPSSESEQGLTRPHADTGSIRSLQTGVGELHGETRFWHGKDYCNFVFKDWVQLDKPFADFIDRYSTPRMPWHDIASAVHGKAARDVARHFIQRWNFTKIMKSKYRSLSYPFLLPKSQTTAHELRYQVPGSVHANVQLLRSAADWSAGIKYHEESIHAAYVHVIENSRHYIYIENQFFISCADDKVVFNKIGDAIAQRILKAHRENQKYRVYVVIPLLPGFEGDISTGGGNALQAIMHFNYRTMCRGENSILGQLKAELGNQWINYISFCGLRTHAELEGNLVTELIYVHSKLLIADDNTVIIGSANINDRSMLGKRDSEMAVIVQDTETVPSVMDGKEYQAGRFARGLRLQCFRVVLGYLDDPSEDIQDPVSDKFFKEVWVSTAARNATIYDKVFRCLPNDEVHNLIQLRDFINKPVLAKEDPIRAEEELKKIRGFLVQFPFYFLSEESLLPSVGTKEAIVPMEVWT

B1: ANKMY2 (protein, UniProt Q8IV38 1-441)
chain: MVHIKKGELTQEEKELLEVIGKGTVQEAGTLLSSKNVRVNCLDENGMTPLMHAAYKGKLDMCKLLLRHGADVNCHQHEHGYTALMFAALSGNKDITWVMLEAGAETDVVNSVGRTAAQMAAFVGQHDCVTIINNFFPRERLDYYTKPQGLDKEPKLPPKLAGPLHKIITTTNLHPVKIVMLVNENPLLTEEAALNKCYRVMDLICEKCMKQRDMNEVLAMKMHYISCIFQKCINFLKDGENKLDTLIKSLLKGRASDGFPVYQEKIIRESIRKFPYCEATLLQQLVRSIAPVEIGSDPTAFSVLTQAITGQVGFVDVEFCTTCGEKGASKRCSVCKMVIYCDQTCQKTHWFTHKKICKNLKDIYEKQQLEAAKEKRQEENHGKLDVNSNCVNEEQPEAEVGISQKDSNPEDSGEGKKESLESEAELEGLQDAPAGPQVSEE
B2: PJA2 (protein, UniProt O43164 1-708)
chain: MSQYTEKEPAAMDQESGKAVWPKPAGGYQTITGRRYGRRHAYVSFKPCMTRHERSLGRAGDDYEVLELDDVPKENSSGSSPLDQVDSSLPSEPIFEKSETEIPTCGSALNQTTESSQSFVAVHHSEEGRDTLGSSTNLHNHSEGEYIPGACSASSVQNGIALVHTDSYDPDGKHGEDNDHLQLSAEVVEGSRYQESLGNTVFELENREAEAYTGLSPPVPSFNCEVRDEFEELDSVPLVKSSAGDTEFVHQNSQEIQRSSQDEMVSTKQQNNTSQERQTEHSPEDAACGPGHICSEQNTNDREKNHGSSPEQVVRPKVRKLISSSQVDQETGFNRHEAKQRSVQRWREALEVEESGSDDLLIKCEEYDGEHDCMFLDPPYSRVITQRETENNQMTSESGATAGRQEVDNTFWNGCGDYYQLYDKDEDSSECSDGEWSASLPHRFSGTEKDQSSSDESWETLPGKDENEPELQSDSSGPEEENQELSLQEGEQTSLEEGEIPWLQYNEVNESSSDEGNEPANEFAQPAFMLDGNNNLEDDSSVSEDLDVDWSLFDGFADGLGVAEAISYVDPQFLTYMALEERLAQAMETALAHLESLAVDVEVANPPASKESIDGLPETLVLEDHTAIGQEQCCPICCSEYIKDDIATELPCHHFFHKPCVSIWLQKSGTCPVCRRHFPPAVIEASAAPSSEPDPDAPPSNDSIAEAP

How the values were obtained:
Test in all cases: pull-down; HEK293T cells transfected with constructs of both tagged proteins; pull-down with S protein beads; Western blot
PLD2 (human) = PLD2 (human) (UniProt O14939)
PLD5 (human) = molecular target: T1, PLD5 (human)
phospholipase D1 (human) = molecular target: T2, phospholipase D1 (human)

| Binder | binding (PLD2 (human)) | binding (PLD5 (human)) | binding (phospholipase D1 (human)) |
| --- | --- | --- | --- |
| B1 | binds | binds | binds |
| B2 | – | – | binds |
